No constants are given. Whether binding was seen depends on the method and setting. Binding seen in cells or lysates may run through a third protein. Here binding means that the protein was enriched with, or labelled near, the bait; the list need not be complete.

By UniProt entry, the sequences of proteins in these tests, tags left out. Where a name states a change or a piece, a line headed by the entry shows the natural chain unless it says otherwise. Residues count along the entry.
UniProt Q96B97: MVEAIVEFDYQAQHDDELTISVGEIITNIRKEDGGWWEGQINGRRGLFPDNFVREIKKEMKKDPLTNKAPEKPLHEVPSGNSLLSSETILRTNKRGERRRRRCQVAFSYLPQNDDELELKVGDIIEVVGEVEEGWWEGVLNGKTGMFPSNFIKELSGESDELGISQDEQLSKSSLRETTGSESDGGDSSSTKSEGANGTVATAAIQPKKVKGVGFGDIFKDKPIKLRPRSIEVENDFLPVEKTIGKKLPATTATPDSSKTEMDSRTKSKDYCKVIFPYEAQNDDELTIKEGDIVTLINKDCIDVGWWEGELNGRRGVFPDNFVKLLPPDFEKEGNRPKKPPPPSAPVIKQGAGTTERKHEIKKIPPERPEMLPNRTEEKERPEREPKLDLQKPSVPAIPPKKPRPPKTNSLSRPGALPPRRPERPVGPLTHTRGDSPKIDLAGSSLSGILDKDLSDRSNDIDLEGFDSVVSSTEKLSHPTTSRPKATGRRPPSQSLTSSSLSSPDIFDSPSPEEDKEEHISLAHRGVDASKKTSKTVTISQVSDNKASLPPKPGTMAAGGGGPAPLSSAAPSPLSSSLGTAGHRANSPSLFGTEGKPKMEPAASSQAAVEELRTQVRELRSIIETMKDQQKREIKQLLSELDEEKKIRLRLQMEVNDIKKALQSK
UniProt O75475: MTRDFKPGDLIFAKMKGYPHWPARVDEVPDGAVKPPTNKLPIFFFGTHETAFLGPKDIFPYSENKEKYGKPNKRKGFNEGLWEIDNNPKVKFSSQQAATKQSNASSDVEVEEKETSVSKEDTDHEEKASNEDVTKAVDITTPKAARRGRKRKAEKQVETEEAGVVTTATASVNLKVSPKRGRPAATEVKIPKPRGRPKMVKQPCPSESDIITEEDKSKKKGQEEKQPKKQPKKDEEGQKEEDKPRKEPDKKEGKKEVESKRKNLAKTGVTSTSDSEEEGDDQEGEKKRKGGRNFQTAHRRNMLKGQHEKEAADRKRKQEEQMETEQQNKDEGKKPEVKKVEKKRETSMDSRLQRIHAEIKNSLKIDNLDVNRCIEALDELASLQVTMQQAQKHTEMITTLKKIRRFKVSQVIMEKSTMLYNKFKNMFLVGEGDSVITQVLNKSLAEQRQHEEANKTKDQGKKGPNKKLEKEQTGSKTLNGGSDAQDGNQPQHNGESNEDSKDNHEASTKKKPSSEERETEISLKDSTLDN
UniProt P25705, residues 44-553: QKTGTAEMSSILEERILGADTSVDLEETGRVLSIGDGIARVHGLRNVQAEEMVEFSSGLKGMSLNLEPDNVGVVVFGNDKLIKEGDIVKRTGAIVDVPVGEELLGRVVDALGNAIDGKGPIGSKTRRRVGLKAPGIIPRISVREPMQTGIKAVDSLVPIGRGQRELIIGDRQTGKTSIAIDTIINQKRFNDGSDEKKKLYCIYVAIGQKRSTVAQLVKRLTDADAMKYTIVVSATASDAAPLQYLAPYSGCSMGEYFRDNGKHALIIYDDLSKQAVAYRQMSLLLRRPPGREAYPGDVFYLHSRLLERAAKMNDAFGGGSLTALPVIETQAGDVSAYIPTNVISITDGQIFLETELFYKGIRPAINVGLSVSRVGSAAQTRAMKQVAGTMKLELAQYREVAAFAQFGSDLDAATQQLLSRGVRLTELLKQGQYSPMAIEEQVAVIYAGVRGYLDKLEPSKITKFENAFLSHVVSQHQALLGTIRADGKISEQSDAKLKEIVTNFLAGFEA
UniProt Q00536: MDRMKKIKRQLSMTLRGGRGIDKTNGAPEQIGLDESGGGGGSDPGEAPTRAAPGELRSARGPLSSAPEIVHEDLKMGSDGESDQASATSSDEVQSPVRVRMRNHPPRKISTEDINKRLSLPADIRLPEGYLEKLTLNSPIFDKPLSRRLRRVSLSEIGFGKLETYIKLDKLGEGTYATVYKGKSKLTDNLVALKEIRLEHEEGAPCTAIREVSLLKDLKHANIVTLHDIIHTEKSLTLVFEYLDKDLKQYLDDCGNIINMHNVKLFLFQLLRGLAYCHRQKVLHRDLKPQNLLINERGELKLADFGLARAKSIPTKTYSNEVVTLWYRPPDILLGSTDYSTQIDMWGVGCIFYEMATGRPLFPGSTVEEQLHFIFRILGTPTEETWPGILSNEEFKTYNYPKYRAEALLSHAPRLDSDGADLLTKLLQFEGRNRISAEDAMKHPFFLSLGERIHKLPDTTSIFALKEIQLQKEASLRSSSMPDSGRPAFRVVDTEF
UniProt Q9UJX5: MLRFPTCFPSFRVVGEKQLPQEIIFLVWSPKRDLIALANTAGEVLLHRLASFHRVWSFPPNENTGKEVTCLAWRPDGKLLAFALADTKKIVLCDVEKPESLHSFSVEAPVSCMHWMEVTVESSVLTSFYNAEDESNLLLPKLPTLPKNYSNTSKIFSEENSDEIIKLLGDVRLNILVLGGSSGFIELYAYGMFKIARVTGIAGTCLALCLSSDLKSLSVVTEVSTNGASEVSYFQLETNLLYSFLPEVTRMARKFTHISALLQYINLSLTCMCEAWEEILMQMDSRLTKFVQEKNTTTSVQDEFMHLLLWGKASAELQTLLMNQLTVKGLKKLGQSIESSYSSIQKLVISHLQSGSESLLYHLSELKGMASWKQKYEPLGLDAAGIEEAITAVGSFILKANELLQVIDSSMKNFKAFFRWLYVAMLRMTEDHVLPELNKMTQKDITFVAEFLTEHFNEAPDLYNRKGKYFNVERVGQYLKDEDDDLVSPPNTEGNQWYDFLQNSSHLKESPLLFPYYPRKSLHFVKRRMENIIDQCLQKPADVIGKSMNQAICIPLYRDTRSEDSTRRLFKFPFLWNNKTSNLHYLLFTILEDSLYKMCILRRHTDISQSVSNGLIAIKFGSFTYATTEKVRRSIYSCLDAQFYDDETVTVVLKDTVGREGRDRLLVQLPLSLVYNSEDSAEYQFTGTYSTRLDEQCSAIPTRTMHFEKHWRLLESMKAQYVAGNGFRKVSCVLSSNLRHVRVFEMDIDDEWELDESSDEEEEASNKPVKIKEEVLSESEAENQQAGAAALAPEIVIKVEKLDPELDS

For test [1], the target named is GST-fusion SH3B domain of Ruk/CIN85 (UniProt Q96B97). In words: affinity purification with mass spectrometry; GST-fusion SH3 domain (about 10 μg on 40 μl Glutathione Sepharose 4B) incubated 4 h at 4°C with HeLa lysate pre-cleared on GST beads; 20 mM Tris pH 7.5, 150 mM NaCl, 5 mM EDTA, 5% glycerol, 0.5% Triton X-100 (washes 0.1%); SDS-PAGE, in-gel trypsin digestion, LC-MS/MS; hits also found with GST alone removed; only the target purified.

Test [2] deals with GST-fusion SH3C domain of Ruk/CIN85 (UniProt Q96B97). Described as above.

Regarding LEDGF (from UniProt O75475 1-530), the binding entry in test [1] and in test [2] was “binds” each time.

Turning to “ATP synthase a (from UniProt P25705 44-553)”, the binding result in test [1] and in test [2] was “binds” each time.

As to PCTAIRE-1 (from UniProt Q00536 1-496), the binding entry in test [1] and in test [2] was “binds” in each case.

For the molecule APC4 (from UniProt Q9UJX5 1-808), the binding result in test [1] and in test [2] was “binds” throughout.

B1: Colligin (protein, UniProt P50454 19-418)
chain: AEVKKPAAAAAPGTAEKLSPKAATLAERSAGLAFSLYQAMAKDQAVENILVSPVVVASSLGLVSLGGKATTASQAKAVLSAEQLRDEEVHAGLGELLRSLSNSTARNVTWKLGSRLYGPSSVSFADDFVRSSKQHYNCEHSKINFRDKRSALQSINEWAAQTTDGKLPEVTKDVERTDGALLVNAMFFKPHWDEKFHHKMVDNRGFMVTRSYTVGVMMMHRTGLYNYYDDEKEKLQIVEMPLAHKLSSLIILMPHHVEPLERLEKLLTKEQLKIWMGKMQKKAVAISLPKGVVEVTHDLQKHLAGLGLTEAIDKNKADLSRMSGKKDLYLASVFHATAFELDTDGNPFDQDIYGREELRSPKLFYADHPFIFLVRDTQSGSLLFIGRLVRPKGDKMRDEL
On to B1, for which the binding entry in test [1] is recorded as “binds”.

B2: DDX28 (protein, UniProt Q9NUL7 1-540)
chain: MALTRPVRLFSLVTRLLLAPRRGLTVRSPDEPLPVVRIPVALQRQLEQRQSRRRNLPRPVLVRPGPLLVSARRPELNQPARLTLGRWERAPLASQGWKSRRARRDHFSIERAQQEAPAVRKLSSKGSFADLGLEPRVLHALQEAAPEVVQPTTVQSSTIPSLLRGRHVVCAAETGSGKTLSYLLPLLQRLLGQPSLDSLPIPAPRGLVLVPSRELAQQVRAVAQPLGRSLGLLVRDLEGGHGMRRIRLQLSRQPSADVLVATPGALWKALKSRLISLEQLSFLVLDEADTLLDESFLELVDYILEKSHIAEGPADLEDPFNPKAQLVLVGATFPEGVGQLLNKVASPDAVTTITSSKLHCIMPHVKQTFLRLKGADKVAELVHILKHRDRAERTGPSGTVLVFCNSSSTVNWLGYILDDHKIQHLRLQGQMPALMRVGIFQSFQKSSRDILLCTDIASRGLDSTGVELVVNYDFPPTLQDYIHRAGRVGRVGSEVPGTVISFVTHPWDVSLVQKIELAARRRRSLPGLASSVKEPLPQAT
Turning to B2, the binding result in test [1] is “binds”.

B3: MAP7D3 (protein, UniProt Q8IWC1 1-876)
chain: MMADGAAAGAGGSPSLRELRARMVAAANEIAKERRKQDVVNRVATHSSNIRSTFKPVIDGSMLKNDIKQRLARERREEKRRQQDANKETQLLEKERKTKLQYEKQMEERQRKLKERKEKEEQRRIAAEEKRHQKDEAQKEKFTAILYRTLERRRLADDYQQKRWSWGGSAMANSESKTANKRSASTEKLEQGTSALIRQMPLSSAGLQNSVAKRKTDKERSSSLNRRDSNLHSSTDKEQAERKPRVTGVTNYVMQYVTVPLRKCTSDELRAVMFPMSTMKIPPQTKVEESPLEKVETPPKASVDAPPQVNVEVFCNTSMEASPKAGVGMAPEVSTDSFPVVSVDVSPVVSTYDSEMSMDASPELSIEALPKVDLETVPKVSIVASPEASLEAPPEVSLEALPEVSVEAAPEGSLEAPPKGSAEVAPKESVKGSPKESMEASPEAMVKASPKTSLEASMEASPKAKARDAPKKSEMDKQALIPIAKKRLSSYTECYKWSSSPENACGLPSPISTNRQIQKNCPPSPLPLISKQSPQTSFPYKIMPIQHTLSVQSASSTVKKKKETVSKTTNRCEALSQRHMIYEESGNKSTAGIMNAEAATKILTELRRLAREQREKEEEERQREEMQQRVIKKSKDMAKEAVGGQAEDHLKLKDGQQQNETKKKKGWLDQEDQEAPLQKGDAKIKAQEEADKRKKEHERIMLQNLQERLERKKRIEEIMKRTRKTDVNASKVTETSSHDIYEEAEADNEESDKDSLNEMFPSAILNGTGSPTKFKMPFNNAKKMTHKLVFLEDGTSQVRKEPKTYFNGDLKNFRQKSMKDTSIQEVVSRPSSKRMTSHTTKTRKADETNTTSRSSAQTKSEGFHDILPKSSDTFRQ
In the case of B3, the binding entry in test [1] is on record as “binds”.

The values above are taken from PMC2702278.
